{"source": "patent US20200138854A1", "about": "“Method of Detecting and Quantifying Bile Acid from Saliva” (Ironwood Pharmaceuticals, Inc., priority 2017, published 2020)", "key": {"[1]": {"experiment": "Matrix effects on quantification (untreated human saliva)", "settings": "for % Bias QC-High / Mean concentration QC-High / Concentration QC-High: nominal 800 ng/mL; for Concentration: individual values"}, "[2]": {"experiment": "Quality controls: accuracy and precision, batch acceptance (cholestyramine-treated human saliva)"}, "[3]": {"settings": "nominal 80.0 ng/mL, cholestyramine-treated human saliva, run 34"}, "[4]": {"settings": "cholestyramine-treated human saliva, run 34"}, "[5]": {"settings": "nominal 80.0 ng/mL, cholestyramine-treated human saliva, run 35"}, "[6]": {"settings": "nominal 800 ng/mL, cholestyramine-treated human saliva, run 35"}, "[7]": {"settings": "Cholestyramine-Treated Human Saliva, QC-High, nominal 80.0 ng/mL"}, "[8]": {"settings": "Cholestyramine-Treated Human Saliva, QC-Mid, nominal 8.00 ng/mL"}, "[9]": {"settings": "Untreated Human Saliva, Control Blank (endogenous level)"}, "[10]": {"settings": "Untreated Human Saliva, QC-High, spiked 80.0 ng/mL"}}, "note": "“And” between values parts separate entries of the source, which are not always exact repeats. Equal values may be shown once.", "data": [{"smiles": "C[C@H](CCC(=O)O)[C@H]1CC[C@H]2[C@@H]3[C@H](O)C[C@@H]4C[C@H](O)CC[C@]4(C)[C@H]3CC[C@]12C", "note": "[Chenodeoxycholic Acid, Chenodeoxycholic acid]", "values": [{"measurement": "% Bias QC-Mid", "setting": "[1]; [3]", "result": 14.5, "unit": "%"}, {"measurement": "Mean concentration QC-Mid", "setting": "[1]; [3]", "result": 91.6, "unit": "ng/mL"}, {"measurement": "Concentration QC-Mid", "setting": "[1]; nominal 80.0 ng/mL, cholestyramine-treated human saliva, run 34, single determinations", "result": "91.6 ng/mL and 88.9 ng/mL and 94.2 ng/mL"}, {"measurement": "% Bias QC-High", "setting": "[1]; [4]", "result": "−10.3", "unit": "%"}, {"measurement": "Mean concentration QC-High", "setting": "[1]; [4]", "result": 718, "unit": "ng/mL"}, {"measurement": "Concentration QC-High", "setting": "[1]; cholestyramine-treated human saliva, run 34, single determinations", "result": "717 ng/mL and 719 ng/mL"}, {"measurement": "% Bias QC-High", "setting": "[1]; untreated human saliva, run 34", "result": "−1.9", "unit": "%"}, {"measurement": "Mean concentration QC-High", "setting": "[1]; untreated human saliva, run 34", "result": 785, "unit": "ng/mL"}, {"measurement": "Concentration QC-High", "setting": "[1]; untreated human saliva, run 34, single determinations", "result": "708 ng/mL and 826 ng/mL and 703 ng/mL and 877 ng/mL and 870 ng/mL and 724 ng/mL"}, {"measurement": "Mean concentration Control Blank", "setting": "[1]; untreated human saliva, not spiked (endogenous level), run 34", "result": "BQL (BQL: Below quantitation limit (5.00 ng/mL))"}, {"measurement": "Concentration Control Blank", "setting": "[1]; untreated human saliva, not spiked (endogenous level), run 34, single determinations", "result": "BQL (BQL: Below quantitation limit (5.00 ng/mL))"}, {"measurement": "Intra-Run Mean concentration QC-LLOQ", "setting": "[2]; nominal 5.00 ng/mL, cholestyramine-treated human saliva, runs 31, 32, 33", "result": "6.18 ng/mL and 4.68 ng/mL and 4.63 ng/mL"}, {"measurement": "Inter-Run % Bias QC-Mid", "setting": "[2]; nominal 80.0 ng/mL, cholestyramine-treated human saliva", "result": 9.3, "unit": "%"}, {"measurement": "% Bias QC-Mid, batch acceptance", "setting": "[2]; [5]", "result": 23.6, "unit": "%"}, {"measurement": "Mean concentration QC-Mid, batch acceptance", "setting": "[2]; [5]", "result": 98.9, "unit": "ng/mL"}, {"measurement": "Intra-Run Mean concentration QC-Mid", "setting": "[2]; nominal 80.0 ng/mL, cholestyramine-treated human saliva, runs 31, 32, 33", "result": "92.1 ng/mL and 91.5 ng/mL and 78.8 ng/mL"}, {"measurement": "Inter-Run % Bias QC-High", "setting": "[2]; nominal 800 ng/mL, cholestyramine-treated human saliva", "result": "−6.0", "unit": "%"}, {"measurement": "% Bias QC-High, batch acceptance", "setting": "[2]; [6]", "result": "−11.7", "unit": "%"}, {"measurement": "Mean concentration QC-High, batch acceptance", "setting": "[2]; [6]", "result": 707, "unit": "ng/mL"}, {"measurement": "Intra-Run Mean concentration QC-High", "setting": "[2]; nominal 800 ng/mL, cholestyramine-treated human saliva, runs 31, 32, 33", "result": "771 ng/mL and 768 ng/mL and 718 ng/mL"}]}, {"smiles": "CC(CCC(=O)NCC(=O)O)C1CCC2C3CCC4CC(O)CCC4(C)C3CC(O)C12C", "note": "(stereo not shown) [Glycodeoxycholic Acid, Glycodeoxycholic acid]", "values": [{"measurement": "% Bias", "setting": "[1]; [7]", "result": "−3.1", "unit": "%"}, {"measurement": "Concentration, Mean", "setting": "[1]; [7]", "result": 77.5, "unit": "ng/mL"}, {"measurement": "Concentration", "setting": "[1]; [7]", "result": "75.7 ng/mL and 77.8 ng/mL and 79.1 ng/mL"}, {"measurement": "% Bias", "setting": "[1]; [8]", "result": 9.5, "unit": "%"}, {"measurement": "Concentration, Mean", "setting": "[1]; [8]", "result": 8.76, "unit": "ng/mL"}, {"measurement": "Concentration", "setting": "[1]; [8]", "result": "8.93 ng/mL and 8.91 ng/mL and 8.45 ng/mL"}, {"measurement": "Concentration, Mean", "setting": "[1]; [9]", "result": "BQL (Below quantitation limit (<0.500 ng/mL))"}, {"measurement": "Concentration", "setting": "[1]; [9]", "result": "BQL (Below quantitation limit (<0.500 ng/mL))"}, {"measurement": "% Bias", "setting": "[1]; [10]", "result": "−4.6", "unit": "%"}, {"measurement": "Concentration, Mean", "setting": "[1]; [10]", "result": 76.3, "unit": "ng/mL"}, {"measurement": "Concentration", "setting": "[1]; [10]", "result": "77.2 ng/mL and 73.8 ng/mL and 76.5 ng/mL and 77.3 ng/mL (2×) and 75.7 ng/mL"}, {"measurement": "Inter-Run % CV", "setting": "[2]; QC-High, nominal 80.0 ng/mL", "result": 6.9, "unit": "%"}, {"measurement": "Inter-Run Mean", "setting": "[2]; QC-High, nominal 80.0 ng/mL", "result": 82.9, "unit": "ng/mL"}, {"measurement": "Inter-Run % CV", "setting": "[2]; QC-LLOQ, nominal 0.500 ng/mL", "result": 8.6, "unit": "%"}, {"measurement": "Inter-Run Mean", "setting": "[2]; QC-LLOQ, nominal 0.500 ng/mL", "result": 0.538, "unit": "ng/mL"}, {"measurement": "Inter-Run % CV", "setting": "[2]; QC-Mid, nominal 8.00 ng/mL", "result": 6.2, "unit": "%"}, {"measurement": "Inter-Run Mean", "setting": "[2]; QC-Mid, nominal 8.00 ng/mL", "result": 8.47, "unit": "ng/mL"}]}]}
